{"source": "paper PMC8264791", "binders": {"B1": {"name": "VARICOSE (protein, UniProt Q9LTT8 1-1344)", "chain": "MASSPGNTNPHNTPPFDLGILFKPSSNPYPPPAASYPPPTGPFLHNQYDQQHYAPPGISAQPSPVTQQQQDVSSSSAATNLHPQRTLSYPTPPLNLQSPRSNHNPGTHILALLNNTNNGAPVANQEPSHQLPVVNHNEIARSFPGGSGPIRVPSCKLPKGRRLIGEHAVYDVDVRLQGEIQPQLEVTPITKYGSDPQLVVGRQIAVNKVYICYGLKGGNIRVLNINTALRSLFRGHSQRVTDMAFFAEDVDMLASVSLDGKVFVWKISEGSEGEDQPQITGKIVLALQILGEEDTKHPRVCWHCHKQEILVVSIGKHVLRIDTTKVGRGEVFSAEAPLQCPLDKLIDGVQIVGKHDGEVTDLSMCQWMTTRLVSSSVDGTIKIWQDRKAQPLVVLRPHDGHPVSSATFVTSPERPDHIILITGGPLNREMKIWVSAGEEGWLLPADAESWRCTQTLDLKSSTEPRAEEAFFNQVIALSEAGLLLLANAKRNALYAVHLDYGSSPVGTRMDYLSEFTVTMPILSFIGTNDPPEEPIVKVYCVQTLAIQQYTLDLCLCLPPPIENMGLEKSDSSVSREANLVEGMSEPSGLKPTDLPSVDSVPKPSIIVNRSESANKLSFPSAEATSQAIVPPNGEPKTSGLPSQTSGAGSAYATLPQLPLSPRLSSKLSGYHTPVEAIEPVIPHHELGGKTPSADYSVDRQMDAVGERNLDVSSVEEISRSKDSNVTPDDDVSGMRSPSAFFKHPTHLVTPSEILMGVSSAEASITTEDRRDRDANIQDVNNDPRDTEVEVKEISEARSTQNGEINDHDETENCTSENREKVFCSQVSNLSTEMARDCYPSTEGTFIPGESKAYGQPIKAGDESGVDSRGGPAKLLKGKKQKAKNSQGPGLSSTSSNVANLADSFNEQSQSLSHPMTDLLPQLLAMQETMNQVMASQKEMQRQLSNAATGPIGKESKRLEVALGRMIEKSSKSNADALWARIQEETVKNEKALRDHAQQIVNATTNFMSKELNAMFEKTIKKELAAIGPALARSVVPVIEKTVSSAITESFQRGIGDKAVNQLDKSVNIKLEATVARQIQAQFQTSGKQALQEGLRSSVESSVIPSFEKACKAMFDQIDSAFQKGIAEHTNAAQQRFDSGHSQLAHTLKESITSASSVAQALSRELAETQRNLLALAAAGANSGGSNSLVTQLSGGPLGALLEKVEAPMDPTTELSRLISERKYEESFTSALQRSDVSIVSWLCSQVDLRGLLAMNPLPLSQGVLLSLLQQLACDISKDTSRKLAWMTDVVAAINPSDQMIAVHARPIFEQVYQILHHHRNAPGSDVSAIRLIMHVINSMLMGCK"}, "B2": {"name": "RAN GTPASE-… PROTEIN 1 (protein, UniProt Q9LE82 1-535)", "chain": "MDHSAKTTQNRVLSVKMWPPSKSTRLMLVERMTKNITTPSIFSRKYGLLSVEEAEQDAKRIEDLAFATANKHFQNEPDGDGTSAVHVYAKESSKLMLDVIKRGPQEESEVEVSKDGDVFFDISGGSRAFIEEEEARDLLRPLADPRNSYTKIRFSNRSFGSEAAKFAASVLSSIKDQLTEVDLSDFVAGRPEAEALEVMNMFSSALEGSKLRYLNLSDNALGEKGIRAFASLINSQHDLEELYLMNDGISEDAARAVRELLPSTDKIRVLQFHNNMTGDEGATAIAEIVRECPSLEDFRCSSTRIGSEGGVALAEALEHCSHLKKLDLRDNMFGVEGGIALAKTLSVLTHLTEIYMSYLNLEDEGTEALSEALLKSAPSLEVLELAGNDITVKSTGNLAACIASKQSLAKLNLSENELKDEGTILIAKAVEGHDQLVEVDLSTNMIRRAGARALAQTVVKKNTFKLLNINGNFISEEGIDEVNDMFKDCLDKLVPLDDNDPEGEDFEDEDEEEEGEDGNELESKLGSLKIKQGEE"}, "B3": {"name": "CALMODULIN-LIKE PROTEIN 10 (protein, UniProt P30187 1-191)", "chain": "MANKFTRQQISEFREQFSVYDKNGDGHITTEEFGAVMRSLGLNLTQAELQEEINDSDLDGDGTINFTEFLCAMAKDTYSEKDLKKDFRLFDIDKNGFISAAEMRYVRTILRWKQTDEEIDEIIKAADVDGDGQINYREFARLMMAKNQGHDTKYDTTGGTLERDLAAGVAKNIIAAPMTDFIKNLFEALFS"}, "B4": {"name": "Calmodulin-binding transcription activator 5 (protein, UniProt O23463 1-923)", "chain": "MAGVDSGKLIGSEIHGFHTLQDLDIQTMLDEAYSRWLRPNEIHALLCNHKFFTINVKPVNLPKSGTIVLFDRKMLRNFRKDGHNWKKKKDGKTIKEAHEHLKVGNEERIHVYYAHGEDTPTFVRRCYWLLDKSQEHIVLVHYRETHEVHAAPATPGNSYSSSITDHLSPKIVAEDTSSGVHNTCNTGFEVRSNSLGSRNHEIRLHEINTLDWDELLVPADISNQSHPTEEDMLYFTEQLQTAPRGSVKQGNHLAGYNGSVDIPSFPGLEDPVYQNNNSCGAGEFSSQHSHCGVDPNLQRRDFSATVTDQPGDALLNNGYGSQDSFGRWVNNFISDSPGSVDDPSLEAVYTPGQDSSTPPTVFHSHSDIPEQVFNITDVSPAWAYSTEKTKILVTGFFHDSFQHLGRSNLICICGELRVPAEFLQMGVYRCFLPPQSPGVVNLYLSVDGNKPISQLFSFEHRSVQFIEKAIPQDDQLYKWEEFEFQVRLAHLLFTSSNKISVLTSKISPENLLEAKKLASRTSHLLNSWAYLMKSIQANEVPFDQARDHLFELTLKNRLKEWLLEKVIENRNTKEYDSKGLGVIHLCAVLGYTWSILLFSWANISLDFRDKQGWTALHWAAYYGREKMVAALLSAGARPNLVTDPTKEFLGGCTAADLAQQKGYDGLAAFLAEKCLVAQFKDMQTAGNISGNLETIKAEKSSNPGNANEEEQSLKDTLAAYRTAAEAAARIQGAFREHELKVRSSAVRFASKEEEAKNIIAAMKIQHAFRNFEVRRKIAAAARIQYRFQTWKMRREFLNMRKKAIRIQAAFRGFQVRRQYQKITWSVGVLEKAILRWRLKRKGFRGLQVSQPDEKEGSEAVEDFYKTSQKQAEERLERSVVKVQAMFRSKKAQQDYRRMKLAHEEAQLEYDGMQELDQMATEES"}, "B5": {"name": "NUCLEAR TRANSPORT FACTOR 2FAMILY PROTEIN (protein, UniProt Q9FME2 1-460)", "chain": "MAQQEASPSPGAEVVGRAFVEQYYHILHQSPGLVHRFYQDSSFLTRPDVTGAVTTVTTMQAINDKILSLKYEDYTAEIETADAQESHERGVIVLVTGRLTGNDNVRKKFSQSFFLAPQDKGYFVLNDVFRFLEEKEVTAQARSVPINGTTRDVQAPIEPERVVVSHEPEVEPEPVASIEEEDLDNVAEVYDPSDKDEGVVVDVEPIEPPTQISHNEILSVPQGDAPKHSYASILKQMKSSPAPTTHVARNKPRPAPVNQKLTAPPAEPAARPEASAHENVPNSSHVDVEDDGHSIYVRNLPFDSTPTQLEEVFKNFGAIKHEGIQVRSNKQQGFCFGFVEFETSSGKQSALEASPVTIGDRQAVVEEKKTNSRGGGNNGGSRGRYFSGRGSFRNESFKGGRGGGGRGGYGRGGGEFSGRPKSSNPRNGGEGYQRVPQNGGGGRGGRGEGGRGGARGGGSS"}, "B6": {"name": "UBIQUITIN-SPECIFIC PROTEASE 12 (protein, UniProt Q9FPT1 1-1116)", "chain": "MTMMTPPPVDQPEDEEMLVPNSDLVDGPAQPMEVTQPETAASTVENQPAEDPPTLKFTWTIPNFSRQNTRKHYSDVFVVGGYKWRILIFPKGNNVDHLSMYLDVSDAASLPYGWSRYAQFSLAVVNQIHTRYTVRKETQHQFNARESDWGFTSFMPLSELYDPSRGYLVNDTVLVEAEVAVRKVLDYWSYDSKKETGFVGLKNQGATCYMNSLLQTLYHIPYFRKAVYHMPTTENDAPTASIPLALQSLFYKLQYNDTSVATKELTKSFGWDTYDSFMQHDVQELNRVLCEKLEDKMKGTVVEGTIQQLFEGHHMNYIECINVDFKSTRKESFYDLQLDVKGCKDVYASFDKYVEVERLEGDNKYHAEGHGLQDAKKGVLFIDFPPVLQLQLKRFEYDFMRDTMVKINDRYEFPLELDLDREDGKYLSPDADRSVRNLYTLHSVLVHSGGVHGGHYYAFIRPTLSDQWYKFDDERVTKEDLKRALEEQYGGEEELPQTNPGFNNNPPFKFTKYSNAYMLVYIRESDKDKIICNVDEKDIAEHLRVRLKKEQEEKEDKRRYKAQAHLYTIIKVARDEDLKEQIGKDIYFDLVDHDKVRSFRIQKQTPFQQFKEEVAKEFGVPVQLQRFWIWAKRQNHTYRPNRPLTPQEELQPVGQIREASNKANTAELKLFLEVEHLDLRPIPPPEKSKEDILLFFKLYDPEKAVLSYAGRLMVKSSSKPMDITGKLNEMVGFAPDEEIELFEEIKFEPCVMCEHLDKKTSFRLCQIEDGDIICFQKPLVNKEIECLYPAVPSFLEYVQNRQLVRFRALEKPKEDEFVLELSKQHTYDDVVEKVAEKLGLDDPSKLRLTSHNCYSQQPKPQPIKYRGVDHLSDMLVHYNQTSDILYYEVLDIPLPELQGLKTLKVAFHHATKEEVVIHNIRLPKQSTVGDVINELKTKVELSHPDAELRLLEVFYHKIYKIFPSTERIENINDQYWTLRAEEIPEEEKNIGPNDRLILVYHFAKETGQNQQVQNFGEPFFLVIHEGETLEEIKNRIQKKLHVSDEDFAKWKFAFMSMGRPEYLQDTDVVYNRFQRRDVYGAFEQYLGLEHADTTPKRAYAANQNRHAYEKPVKIYN"}, "B7": {"name": "CHARGED MULTIVESICULAR BODY PROTEIN 1A (protein, UniProt Q8LE58 1-203)", "chain": "MGNTDKLMNQIFELKFTSKSLQRQARKCEKEERSEKLKVKKAIEKGNMDGARIYAENAIRKRSEQMNYLRLSSRLDAVVARLDTQAKMATITKSMTNIVKSLESSLTTGNLQKMSETMDSFEKQFVNMEVQAEFMDNAMAGSTSLSTPEGEVNSLMQQVADDYGLEVSVGLPQPAGHAIPTKTEEKVEEDDLTRRLAELKARG"}}, "note": "Results are given in words; binding and its absence hold for the method and conditions named. Binding seen in cells or lysates may run through a third protein. A yes stands for co-enrichment or nearness to the bait. Other partners may have been found. Tags and fused reporters may be left off the sequences shown.", "data": [{"biological_target": "T1, GFP-SKD1 (SUPPRESSOR OF K(+) TRANSPORT GROWTH DEFECT 1) (A. thaliana) (UniProt Q9ZNT0)", "T1 sequence": "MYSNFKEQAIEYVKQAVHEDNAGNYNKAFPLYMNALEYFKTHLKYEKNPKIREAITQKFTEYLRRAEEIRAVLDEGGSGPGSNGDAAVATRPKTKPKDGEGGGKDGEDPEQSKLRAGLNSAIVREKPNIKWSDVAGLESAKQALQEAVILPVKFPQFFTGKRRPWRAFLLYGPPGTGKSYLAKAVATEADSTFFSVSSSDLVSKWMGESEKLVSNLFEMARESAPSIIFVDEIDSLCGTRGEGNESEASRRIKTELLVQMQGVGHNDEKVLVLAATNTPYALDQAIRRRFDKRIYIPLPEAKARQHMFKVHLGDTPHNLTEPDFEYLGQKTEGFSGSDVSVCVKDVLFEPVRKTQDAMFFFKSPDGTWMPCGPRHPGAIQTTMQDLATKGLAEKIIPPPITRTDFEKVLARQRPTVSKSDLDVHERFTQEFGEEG", "assay": "affinity purification with mass spectrometry; GFP-SKD1 immunoprecipitated with the GFP Isolation kit (Miltenyi Biotec; anti-GFP magnetic beads) from extracts of rosette leaves of 35S::GFP-SKD1 plants, heat-treated or kept at RT; on-bead digest, LC-MS/MS; 35S::YFP line as negative control; 3 replicates each", "values": [{"binder": "B1", "binding": "binds"}, {"binder": "B2", "binding": "binds"}, {"binder": "B3", "binding": "binds"}, {"binder": "B4", "binding": "binds"}, {"binder": "B5", "binding": "binds"}, {"binder": "B6", "binding": "binds"}, {"binder": "B7", "binding": "binds"}]}]}
